Measurements: publication PMC5592244
These are yes or no findings as the source states them, for the method shown. Binding seen in cells or lysates may run through a third protein. A yes stands for co-enrichment or nearness to the bait. Other partners may have been found.

By UniProt entry, the sequences of proteins in these tests, tags left out.
UniProt O60566: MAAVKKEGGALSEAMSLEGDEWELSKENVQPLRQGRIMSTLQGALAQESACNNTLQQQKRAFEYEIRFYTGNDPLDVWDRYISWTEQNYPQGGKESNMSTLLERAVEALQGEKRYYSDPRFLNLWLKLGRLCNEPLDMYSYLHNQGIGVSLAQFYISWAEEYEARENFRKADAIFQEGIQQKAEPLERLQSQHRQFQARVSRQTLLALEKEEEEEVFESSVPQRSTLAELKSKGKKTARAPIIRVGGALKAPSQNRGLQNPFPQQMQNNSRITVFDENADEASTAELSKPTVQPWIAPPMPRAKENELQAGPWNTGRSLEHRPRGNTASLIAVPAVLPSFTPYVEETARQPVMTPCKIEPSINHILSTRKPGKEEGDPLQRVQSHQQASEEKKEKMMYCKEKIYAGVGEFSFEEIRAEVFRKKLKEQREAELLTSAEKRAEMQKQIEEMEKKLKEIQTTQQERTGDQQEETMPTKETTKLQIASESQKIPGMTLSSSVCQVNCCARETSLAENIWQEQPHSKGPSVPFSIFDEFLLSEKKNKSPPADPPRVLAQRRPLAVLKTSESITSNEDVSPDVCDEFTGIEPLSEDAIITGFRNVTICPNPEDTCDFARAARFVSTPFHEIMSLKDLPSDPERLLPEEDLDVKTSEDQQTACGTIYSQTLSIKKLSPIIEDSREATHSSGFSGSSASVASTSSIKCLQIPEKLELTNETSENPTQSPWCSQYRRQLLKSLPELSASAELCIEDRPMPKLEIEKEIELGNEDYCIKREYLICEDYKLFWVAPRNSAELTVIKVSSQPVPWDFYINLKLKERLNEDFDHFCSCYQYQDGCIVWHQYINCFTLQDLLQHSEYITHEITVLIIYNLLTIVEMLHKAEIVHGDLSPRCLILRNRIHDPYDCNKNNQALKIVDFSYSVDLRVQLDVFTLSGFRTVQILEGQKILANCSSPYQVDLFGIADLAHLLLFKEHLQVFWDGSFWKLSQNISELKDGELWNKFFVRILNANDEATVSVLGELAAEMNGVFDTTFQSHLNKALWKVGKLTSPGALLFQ
UniProt O43683: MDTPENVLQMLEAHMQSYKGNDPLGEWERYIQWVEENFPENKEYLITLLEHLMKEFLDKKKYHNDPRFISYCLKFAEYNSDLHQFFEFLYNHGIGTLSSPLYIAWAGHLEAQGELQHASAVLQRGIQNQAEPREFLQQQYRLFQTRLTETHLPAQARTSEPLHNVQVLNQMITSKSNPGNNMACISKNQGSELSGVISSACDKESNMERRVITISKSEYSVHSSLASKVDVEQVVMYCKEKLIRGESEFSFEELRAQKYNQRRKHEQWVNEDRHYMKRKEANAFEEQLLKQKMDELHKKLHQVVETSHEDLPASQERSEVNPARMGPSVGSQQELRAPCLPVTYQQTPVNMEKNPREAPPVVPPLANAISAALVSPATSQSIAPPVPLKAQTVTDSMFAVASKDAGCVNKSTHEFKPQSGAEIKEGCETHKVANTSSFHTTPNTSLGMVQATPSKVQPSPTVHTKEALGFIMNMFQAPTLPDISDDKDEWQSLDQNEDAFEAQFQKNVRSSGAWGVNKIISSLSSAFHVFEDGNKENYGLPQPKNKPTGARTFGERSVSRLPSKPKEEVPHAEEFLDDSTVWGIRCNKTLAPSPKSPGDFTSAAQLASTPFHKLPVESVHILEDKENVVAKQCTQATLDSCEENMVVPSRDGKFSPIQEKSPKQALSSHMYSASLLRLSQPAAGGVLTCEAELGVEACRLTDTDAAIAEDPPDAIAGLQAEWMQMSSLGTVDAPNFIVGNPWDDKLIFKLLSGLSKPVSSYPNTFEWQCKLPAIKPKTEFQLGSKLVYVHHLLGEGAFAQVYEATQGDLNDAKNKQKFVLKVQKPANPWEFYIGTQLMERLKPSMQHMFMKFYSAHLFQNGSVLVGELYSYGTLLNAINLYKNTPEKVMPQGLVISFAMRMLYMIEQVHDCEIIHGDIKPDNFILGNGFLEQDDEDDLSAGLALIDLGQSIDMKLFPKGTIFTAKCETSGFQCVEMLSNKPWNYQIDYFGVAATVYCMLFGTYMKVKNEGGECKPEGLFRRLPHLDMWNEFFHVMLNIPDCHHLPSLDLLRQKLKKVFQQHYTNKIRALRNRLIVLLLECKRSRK

Molecular target: FLAG-UBR5-CS (catalytically dead UBR5, C2768S) (human) (UniProt O95071)
Assay: affinity purification with mass spectrometry; FLAG-tagged UBR5 baits in LiCl-stimulated HEK293T cells; lysis buffer 20 mM Tris-HCl pH 7.4, 100 mM NaCl, 10% glycerol, 0.2% Triton X-100; Flag affinity gel 2 hr at 4°C; eluted with 3xFlag-Peptide; LC-MS/MS

| binding | Substance |
| --- | --- |
| binds | BUB1β (endogenous, HEK293T) (from UniProt O60566 1-1050) |
| binds | BUB1 (endogenous, HEK293T) (from UniProt O43683 1-1085) |
